PubChem BioAssay AID602196 – INSERM – 2012
Shown is one part, drawn at random, of about 23,000 reagents tested. In the full data, 455 (2%) were called active. 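Active includes both protection and sensitisation; some change values fall well beyond the stated -50 to +50 range.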 Reagents against one gene are numbered here. Not given: the amount of reagent.

Test: 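Knock-downs that protect lung cancer cells from cisplatin or sensitise them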
Cell system: human A549 lung cancer cells
Knock-down reagent: siRNA pair against human genes
Time to read-out: 48 h transfection before cisplatin; time from cisplatin to read-out not stated
Conditions: cisplatin at a dose killing half of control-siRNA cells; exact dose and duration not given
Measured: 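Cisplatin cell death as a shift from the 50% death seen with control siRNA; siRNAs toxic or growth-blocking alone scored 0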
Direction: two-siRNA summed score (-2 to +2): higher = both siRNAs protect from cisplatin killing; -2 means both sensitise; mean protection from cisplatin (shift in death) and protection from cisplatin (shift in death), siRNA C and protection from cisplatin (shift in death), siRNA D: higher = protection from cisplatin killing
Active means: 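Each siRNA scores 0 if harmful alone by LDH or WST-1, otherwise +1 if it reduces and -1 if it increases cisplatin killing; a gene is active when both siRNAs agree (sum +2 or -2)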
Meaning of the calls: active = both siRNAs shift cisplatin killing the same way; inactive = no consistent shift, or siRNA harmful alone

Target gene | reagent | two-siRNA summed score (-2 to +2) | mean protection from cisplatin (shift in death) (%) | protection from cisplatin (shift in death), siRNA C (%) | protection from cisplatin (shift in death), siRNA D (%) | Call
PRKCE | 1 | 0 | 9.8 | 11.8 | 7.7 | inactive
DPAGT1 | 1 | 0 | 17 | 10.7 | 23.2 | inactive
JAM2 | 1 | -1 | -20.9 | -15.6 | -26.1 | inactive
ANKRD13A | 1 | 0 | 8.5 | 5 | 12 | inactive
MSL2 | 1 | -1 | -4.3 | -17.2 | 8.5 | inactive
H4C13 | 1 | 0 | -2.5 | -11.2 | 6.2 | inactive
TUFT1 | 1 | 0 | 11.6 | 9.7 | 13.4 | inactive
NHSL2 | 1 | 0 | 5.4 | 7.5 | 3.4 | inactive
CTF1 | 1 | 0 | 13.3 | 15.9 | 10.7 | inactive
CGN | 1 | 0 | 11.2 | 11.7 | 10.7 | inactive
LOC158730 | 1 | 0 | 8.1 | 4.9 | 11.3 | inactive
LOC441542 | 1 | 0 | 5.1 | 3.7 | 6.4 | inactive
UBXN2A | 1 | 0 | 2 | 1.5 | 2.6 | inactive
FGD6 | 1 | 0 | -4.1 | -5.6 | -2.6 | inactive
SLC26A5 | 1 | 0 | 11.8 | 0.9 | 22.8 | inactive
CRIM1 | 1 | -2 | -37.8 | -29.9 | -45.7 | active
RAPGEFL1 | 1 | 0 | -9.3 | -13.9 | -4.6 | inactive
ZBED4 | 1 | 0 | 8 | 9.2 | 6.7 | inactive
NR0B1 | 1 | 1 | 3.6 | 14.9 | -7.7 | inactive
TEKTL1 | 1 | 1 | 11.9 | 24.8 | -1.1 | inactive
LINC00242 | 1 | 1 | 17.6 | 20.5 | 14.6 | inactive
PKD1L1-AS1 | 1 | 0 | -4.3 | -5.4 | -3.1 | inactive
SMIM17 | 1 | 0 | 11.2 | 9.4 | 13.1 | inactive
PALD1 | 1 | 0 | 18.1 | 20.8 | 15.5 | inactive
LOC401553 | 1 | 0 | 7.8 | 5.2 | 10.5 | inactive
RAB24 | 1 | 0 | -5 | -6.3 | -3.7 | inactive
ARHGEF3 | 1 | 0 | 4.3 | 13.2 | -4.7 | inactive
GPT2 | 1 | 0 | -7.7 | -11.4 | -4 | inactive

Laid out differently: results already given.
Target gene,reagent,two-siRNA summed score (-2 to +2),mean protection from cisplatin (shift in death) (%),"protection from cisplatin (shift in death), siRNA C (%)","protection from cisplatin (shift in death), siRNA D (%)",Call
LOC158730,1,0,8.1,4.9,11.3,inactive
LOC441542,1,0,5.1,3.7,6.4,inactive
UBXN2A,1,0,2,1.5,2.6,inactive
FGD6,1,0,-4.1,-5.6,-2.6,inactive
SLC26A5,1,0,11.8,0.9,22.8,inactive
CRIM1,1,-2,-37.8,-29.9,-45.7,active

More entries follow:
Target gene | reagent | two-siRNA summed score (-2 to +2) | mean protection from cisplatin (shift in death) (%) | protection from cisplatin (shift in death), siRNA C (%) | protection from cisplatin (shift in death), siRNA D (%) | Call
COLQ | 1 | 0 | 7 | -3.6 | 17.6 | inactive
LOC392465 | 1 | 0 | 8.8 | 6 | 11.6 | inactive
PDE6D | 1 | 1 | 11.5 | 17.3 | 5.8 | inactive
CCDC125 | 1 | 2 | 12.6 | 10.9 | 14.3 | active
LOC392358 | 1 | 2 | 15.2 | 18.8 | 11.6 | active
PI4K2A | 1 | 0 | 3.9 | -6.3 | 14.1 | inactive
OR1D4 | 1 | 0 | -0.5 | 4.6 | -5.6 | inactive
EPS8L3 | 1 | 0 | -7.4 | -7.3 | -7.6 | inactive
SIGLEC5 | 1 | 1 | 1.7 | -17.6 | 21 | inactive
LOC440145 | 1 | 0 | 9.1 | 2.5 | 15.6 | inactive
LETR1 | 1 | 0 | 6.5 | 6 | 6.9 | inactive
IPO8 | 1 | 0 | -4.4 | 3.2 | -12.1 | inactive
PLXNA2 | 1 | 0 | 25.1 | 8.7 | 41.5 | inactive
SEL1L3 | 1 | 0 | -1.8 | 0.1 | -3.7 | inactive
LGALS12 | 1 | 0 | 7.3 | 9.3 | 5.4 | inactive
CHAT | 1 | -2 | -12.1 | -10.7 | -13.6 | active
PNPLA7 | 1 | 0 | 4.3 | 4.8 | 3.8 | inactive
MIA2 | 1 | 0 | 3.1 | -2.7 | 8.8 | inactive
MIA2 | 2 | 1 | 6.2 | -3.9 | 16.2 | inactive
TEAD1 | 1 | 0 | 6.7 | 8.5 | 4.8 | inactive
LOC400865 | 1 | 0 | 1.8 | 7.6 | -4 | inactive
WDFY4 | 1 | 0 | 2.9 | 7.6 | -1.8 | inactive
EIF2D | 1 | 1 | 10.3 | 25.5 | -4.8 | inactive
UBE2B | 1 | -1 | -1.8 | 4.2 | -7.8 | inactive
ZNF782 | 1 | -1 | -9.5 | 3.4 | -22.4 | inactive
NECAB2 | 1 | 0 | -0.7 | -3.6 | 2.2 | inactive
CPXM2 | 1 | 1 | 19.9 | 30.7 | 9.1 | inactive
CCL3L3 | 1 | 1 | 14.4 | 29.8 | -0.9 | inactive
MDFI | 1 | -1 | -11.4 | -20.2 | -2.6 | inactive
